Five molecules from publication PMC8216282, “Structural basis for the dynamics of human methionyl-tRNA synthetase in multi-tRNA synthetase complexes” (Nucleic Acids Research, 2021) can be followed below.

These are yes or no findings as the source states them, for the method shown. For part of these data: Binding seen in cells or lysates may run through a third protein. Some results given as binding are weak or reduced against the parent protein; the word gives no strength. For part of these data: Tags and fused reporters may be left off the sequences shown.

In assay [1] the target is T1, AIMP3 with the nanoluciferase large subunit at its N-terminus (LgBit-AIMP3) (human) (UniProt O43324).
T1 sequence: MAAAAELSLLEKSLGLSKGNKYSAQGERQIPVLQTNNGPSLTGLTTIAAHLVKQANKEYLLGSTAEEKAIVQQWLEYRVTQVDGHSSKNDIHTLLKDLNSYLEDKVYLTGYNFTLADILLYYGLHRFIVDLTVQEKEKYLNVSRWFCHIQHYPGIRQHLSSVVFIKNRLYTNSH
Briefly: split reporter; NanoBiT; LgBit on the N- or C-terminus of AIMP3, SmBit on the N- or C-terminus of MRS or on AIMP3; co-expressed in CHO-K1 cells; luminescence measured with cell-permeable substrate.

The target of assay [2] is T2, AIMP3 with the nanoluciferase large subunit at its C-terminus (AIMP3-LgBit) (human) (UniProt O43324).
T2 sequence: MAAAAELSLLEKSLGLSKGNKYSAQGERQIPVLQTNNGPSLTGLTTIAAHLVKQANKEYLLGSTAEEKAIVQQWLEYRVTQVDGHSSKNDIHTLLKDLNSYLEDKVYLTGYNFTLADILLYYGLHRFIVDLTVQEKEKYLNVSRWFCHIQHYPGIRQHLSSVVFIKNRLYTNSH
The assay is described as above.

In assay [3] the target is T3, AIMP3 with the nanoluciferase large subunit at its N-terminus (LgBit-AIMP3) (human), O43324.
T3 chain: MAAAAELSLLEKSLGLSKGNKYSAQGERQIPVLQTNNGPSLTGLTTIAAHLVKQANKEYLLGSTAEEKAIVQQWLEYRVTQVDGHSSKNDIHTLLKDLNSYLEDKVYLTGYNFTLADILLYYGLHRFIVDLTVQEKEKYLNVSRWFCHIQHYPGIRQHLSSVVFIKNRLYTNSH
The assay is described as above. The settings on record: remark: other sources report otherwise.

For assay [4], the target named is human MRS without the N-terminal GST domain (MRS 221-900) (human) (UniProt P56192). The experiment in a line: SEC; Superdex 200 10/300 column, Tris-HCl pH 7.5, 150 mM NaCl; molecular weights from a calibration curve of standards; both purified. For orientation: In gel filtration, larger molecules generally elute earlier.
Assay [5] deals with human MRS catalytic main body (MRS 221-834) (human) (UniProt P56192). The description is as above.

B1: MRS with the nanoluciferase small subunit at its C-terminus (MRS-SmBit) (enzyme, UniProt P56192 1-900)
chain: MRLFVSDGVPGCLPVLAAAGRARGRAEVLISTVGPEDCVVPFLTRPKVPVLQLDSGNYLFSTSAICRYFFLLSGWEQDDLTNQWLEWEATELQPALSAALYYLVVQGKKGEDVLGSVRRALTHIDHSLSRQNCPFLAGETESLADIVLWGALYPLLQDPAYLPEELSALHSWFQTLSTQEPCQRAAETVLKQQGVLALRPYLQKQPQPSPAEGRAVTNEPEEEELATLSEEEIAMAVTAWEKGLESLPPLRPQQNPVLPVAGERNVLITSALPYVNNVPHLGNIIGCVLSADVFARYSRLRQWNTLYLCGTDEYGTATETKALEEGLTPQEICDKYHIIHADIYRWFNISFDIFGRTTTPQQTKITQDIFQQLLKRGFVLQDTVEQLRCEHCARFLADRFVEGVCPFCGYEEARGDQCDKCGKLINAVELKKPQCKVCRSCPVVQSSQHLFLDLPKLEKRLEEWLGRTLPGSDWTPNAQFITRSWLRDGLKPRCITRDLKWGTPVPLEGFEDKVFYVWFDATIGYLSITANYTDQWERWWKNPEQVDLYQFMAKDNVPFHSLVFPCSALGAEDNYTLVSHLIATEYLNYEDGKFSKSRGVGVFGDMAQDTGIPADIWRFYLLYIRPEGQDSAFSWTDLLLKNNSELLNNLGNFINRAGMFVSKFFGGYVPEMVLTPDDQRLLAHVTLELQHYHQLLEKVRIRDALRSILTISRHGNQYIQVNEPWKRIKGSEADRQRAGTVTGLAVNIAALLSVMLQPYMPTVSATIQAQLQLPPPACSILLTNFLCTLPAGHQIGTVSPLFQKLENDQIESLRQRFGGGQAKTSPKPAVVETVTTAKPQQIQALMDEVTKQGNIVRELKAQKADKNEVAAEVAKLLDLKKQLAVAEGKPPEAPKGKKKK
Regarding B1, the binding result in assay [1] and in assay [2] was “binds” throughout.

B2: MRS with the nanoluciferase small subunit at its N-terminus (SmBit-MRS) (enzyme, human, UniProt P56192 1-900, looked up)
chain: MRLFVSDGVPGCLPVLAAAGRARGRAEVLISTVGPEDCVVPFLTRPKVPVLQLDSGNYLFSTSAICRYFFLLSGWEQDDLTNQWLEWEATELQPALSAALYYLVVQGKKGEDVLGSVRRALTHIDHSLSRQNCPFLAGETESLADIVLWGALYPLLQDPAYLPEELSALHSWFQTLSTQEPCQRAAETVLKQQGVLALRPYLQKQPQPSPAEGRAVTNEPEEEELATLSEEEIAMAVTAWEKGLESLPPLRPQQNPVLPVAGERNVLITSALPYVNNVPHLGNIIGCVLSADVFARYSRLRQWNTLYLCGTDEYGTATETKALEEGLTPQEICDKYHIIHADIYRWFNISFDIFGRTTTPQQTKITQDIFQQLLKRGFVLQDTVEQLRCEHCARFLADRFVEGVCPFCGYEEARGDQCDKCGKLINAVELKKPQCKVCRSCPVVQSSQHLFLDLPKLEKRLEEWLGRTLPGSDWTPNAQFITRSWLRDGLKPRCITRDLKWGTPVPLEGFEDKVFYVWFDATIGYLSITANYTDQWERWWKNPEQVDLYQFMAKDNVPFHSLVFPCSALGAEDNYTLVSHLIATEYLNYEDGKFSKSRGVGVFGDMAQDTGIPADIWRFYLLYIRPEGQDSAFSWTDLLLKNNSELLNNLGNFINRAGMFVSKFFGGYVPEMVLTPDDQRLLAHVTLELQHYHQLLEKVRIRDALRSILTISRHGNQYIQVNEPWKRIKGSEADRQRAGTVTGLAVNIAALLSVMLQPYMPTVSATIQAQLQLPPPACSILLTNFLCTLPAGHQIGTVSPLFQKLENDQIESLRQRFGGGQAKTSPKPAVVETVTTAKPQQIQALMDEVTKQGNIVRELKAQKADKNEVAAEVAKLLDLKKQLAVAEGKPPEAPKGKKKK
notes: methionyl-tRNA synthetase, cytosolic, human; source: CHO-K1 cells, transfected, in live cells; not shown: SmBit (NanoLuc small subunit), N-terminal, kept
For B2, in assay [2], the binding entry is “binds”.

B3: AIMP3 (AARS-interacting multifunctional protein 3) (natural protein, human)
chain: MAAAAELSLLEKSLGLSKGNKYSAQGERQIPVLQTNNGPSLTGLTTIAAHLVKQANKEYLLGSTAEEKAIVQQWLEYRVTQVDGHSSKNDIHTLLKDLNSYLEDKVYLTGYNFTLADILLYYGLHRFIVDLTVQEKEKYLNVSRWFCHIQHYPGIRQHLSSVVFIKNRLYTNSH
notes: AIMP3, human; 'Genes for full-length human MRS (residues 1-900) and AIMP3' were cloned; the earlier structure (PDB 4bvx) used AIMP3 1-169; source: recombinant from pET30a or pQE80L plasmids, co-purified with MRS or MRS_(1-224)
Regarding B3, the binding entry in assay [3] is on record as “no binding”.

B4: human MRS without the N-terminal GST domain (MRS 221-900) (domain or fragment, UniProt P56192 221-900)
chain: EEEELATLSEEEIAMAVTAWEKGLESLPPLRPQQNPVLPVAGERNVLITSALPYVNNVPHLGNIIGCVLSADVFARYSRLRQWNTLYLCGTDEYGTATETKALEEGLTPQEICDKYHIIHADIYRWFNISFDIFGRTTTPQQTKITQDIFQQLLKRGFVLQDTVEQLRCEHCARFLADRFVEGVCPFCGYEEARGDQCDKCGKLINAVELKKPQCKVCRSCPVVQSSQHLFLDLPKLEKRLEEWLGRTLPGSDWTPNAQFITRSWLRDGLKPRCITRDLKWGTPVPLEGFEDKVFYVWFDATIGYLSITANYTDQWERWWKNPEQVDLYQFMAKDNVPFHSLVFPCSALGAEDNYTLVSHLIATEYLNYEDGKFSKSRGVGVFGDMAQDTGIPADIWRFYLLYIRPEGQDSAFSWTDLLLKNNSELLNNLGNFINRAGMFVSKFFGGYVPEMVLTPDDQRLLAHVTLELQHYHQLLEKVRIRDALRSILTISRHGNQYIQVNEPWKRIKGSEADRQRAGTVTGLAVNIAALLSVMLQPYMPTVSATIQAQLQLPPPACSILLTNFLCTLPAGHQIGTVSPLFQKLENDQIESLRQRFGGGQAKTSPKPAVVETVTTAKPQQIQALMDEVTKQGNIVRELKAQKADKNEVAAEVAKLLDLKKQLAVAEGKPPEAPKGKKKK
As for B4, in assay [4], the binding entry was “no binding”.

B5: human MRS catalytic main body (MRS 221-834) (domain or fragment, UniProt P56192 221-834)
chain: EEEELATLSEEEIAMAVTAWEKGLESLPPLRPQQNPVLPVAGERNVLITSALPYVNNVPHLGNIIGCVLSADVFARYSRLRQWNTLYLCGTDEYGTATETKALEEGLTPQEICDKYHIIHADIYRWFNISFDIFGRTTTPQQTKITQDIFQQLLKRGFVLQDTVEQLRCEHCARFLADRFVEGVCPFCGYEEARGDQCDKCGKLINAVELKKPQCKVCRSCPVVQSSQHLFLDLPKLEKRLEEWLGRTLPGSDWTPNAQFITRSWLRDGLKPRCITRDLKWGTPVPLEGFEDKVFYVWFDATIGYLSITANYTDQWERWWKNPEQVDLYQFMAKDNVPFHSLVFPCSALGAEDNYTLVSHLIATEYLNYEDGKFSKSRGVGVFGDMAQDTGIPADIWRFYLLYIRPEGQDSAFSWTDLLLKNNSELLNNLGNFINRAGMFVSKFFGGYVPEMVLTPDDQRLLAHVTLELQHYHQLLEKVRIRDALRSILTISRHGNQYIQVNEPWKRIKGSEADRQRAGTVTGLAVNIAALLSVMLQPYMPTVSATIQAQLQLPPPACSILLTNFLCTLPAGHQIGTVSPLFQKLENDQIESLRQRFGGGQAKTSPKPAVVETV
As for B5, the binding result in assay [5] is reported as “no binding”.
